Results taken from patent US10626145B2 (CAREGEN CO., LTD., priority 2015, dated 2020).

Assay: general procedure: peptide synthesis; chlorotrityl chloride resin (CTL resin, Nova biochem Cat No. 01-64-0021)
Details: whole synthesis

## NH2-Leu-Lys-Thr-Arg-Asn-COOH (LKTRN; Peptide 1)
  crude mass: 0.85 g
Scale of the general procedure 700 mg resin
  crude yield: 92%
